The assay addresses VEGF-D (R&D Systems) (Homo sapiens (Human)) (UniProt O43915). The experiment in a line: method not described.

Chains of the proteins cited; added tags and fusions are not shown. Lines headed by an entry give the natural chain unless they say otherwise; changes in a name come on top.
UniProt O43915: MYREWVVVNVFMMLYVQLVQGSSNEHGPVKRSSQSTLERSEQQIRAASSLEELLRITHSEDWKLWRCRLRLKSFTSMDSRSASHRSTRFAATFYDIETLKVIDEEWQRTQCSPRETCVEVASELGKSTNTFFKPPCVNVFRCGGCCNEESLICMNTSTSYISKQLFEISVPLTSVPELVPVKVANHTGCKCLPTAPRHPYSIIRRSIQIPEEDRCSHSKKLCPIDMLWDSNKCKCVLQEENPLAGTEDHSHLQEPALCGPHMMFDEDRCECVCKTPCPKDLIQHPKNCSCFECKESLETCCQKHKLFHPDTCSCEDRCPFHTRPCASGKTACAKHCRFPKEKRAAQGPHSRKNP
UniProt P35916: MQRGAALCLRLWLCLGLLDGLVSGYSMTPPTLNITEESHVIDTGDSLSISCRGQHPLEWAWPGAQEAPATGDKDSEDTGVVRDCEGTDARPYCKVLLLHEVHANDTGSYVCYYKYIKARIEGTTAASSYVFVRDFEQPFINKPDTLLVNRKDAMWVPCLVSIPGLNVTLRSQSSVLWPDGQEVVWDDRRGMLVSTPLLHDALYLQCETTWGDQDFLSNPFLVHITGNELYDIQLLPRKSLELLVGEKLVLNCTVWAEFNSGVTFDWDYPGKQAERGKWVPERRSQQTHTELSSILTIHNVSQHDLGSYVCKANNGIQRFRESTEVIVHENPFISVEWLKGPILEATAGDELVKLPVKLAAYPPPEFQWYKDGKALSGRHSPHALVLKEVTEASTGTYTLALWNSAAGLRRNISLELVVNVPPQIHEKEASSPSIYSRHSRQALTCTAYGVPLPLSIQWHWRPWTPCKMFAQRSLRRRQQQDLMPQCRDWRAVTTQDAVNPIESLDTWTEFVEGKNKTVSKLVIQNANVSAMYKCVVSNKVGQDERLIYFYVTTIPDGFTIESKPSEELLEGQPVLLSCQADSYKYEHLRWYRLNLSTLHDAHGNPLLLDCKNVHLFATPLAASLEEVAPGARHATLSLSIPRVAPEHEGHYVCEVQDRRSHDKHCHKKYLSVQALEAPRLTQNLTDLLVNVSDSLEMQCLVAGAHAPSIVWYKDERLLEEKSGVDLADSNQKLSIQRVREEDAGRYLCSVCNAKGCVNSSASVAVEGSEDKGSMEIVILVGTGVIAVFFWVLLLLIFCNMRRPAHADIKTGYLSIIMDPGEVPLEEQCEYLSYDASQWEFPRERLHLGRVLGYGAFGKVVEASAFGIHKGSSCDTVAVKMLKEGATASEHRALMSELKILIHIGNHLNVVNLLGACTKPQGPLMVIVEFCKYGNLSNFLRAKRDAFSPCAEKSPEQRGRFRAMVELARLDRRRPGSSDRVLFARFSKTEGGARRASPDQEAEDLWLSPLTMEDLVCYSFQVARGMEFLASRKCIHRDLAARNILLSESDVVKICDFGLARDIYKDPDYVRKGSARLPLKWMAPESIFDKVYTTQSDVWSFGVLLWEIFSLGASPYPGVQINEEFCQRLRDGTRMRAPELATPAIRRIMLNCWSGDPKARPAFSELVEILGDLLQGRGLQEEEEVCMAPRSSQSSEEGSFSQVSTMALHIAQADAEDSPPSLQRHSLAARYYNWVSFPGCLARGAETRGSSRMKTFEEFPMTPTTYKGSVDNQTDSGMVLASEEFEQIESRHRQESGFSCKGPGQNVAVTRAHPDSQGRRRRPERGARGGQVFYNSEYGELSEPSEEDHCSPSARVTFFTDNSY

This passage reports binding results from US20150141622A1 (published 2015).

These are yes or no findings as the source states them, for the method shown. Some results given as binding are weak or reduced against the parent protein; the word gives no strength.

For the substance “full-length extracellular domain of VEGFR-3 (from UniProt P35916 25-775) (receptor)”, the binding entry is on record as “binds”.
